Reference: PubChem BioAssay AID540303 (National Center for Advancing Translational Sciences (NCATS), 2011)
About 1,000 (0.3%) of roughly 330,000 compounds were called active. Inconclusive results, whose numbers are uncertain, are shown with a selection of clear calls. Calls follow the shape of the dose curve; as a rule, active = well fitted inhibition curve with a large enough effect; inconclusive = small, poorly fitted or top-dose-only effect; inactive = no such curve, though single readings can be large or run the other way; tested in mouse RAW 264.7 cells. Potencies of inconclusive entries are doubtful fits and often do not repeat.

Assay: qHTS for Inhibitors of Cell Surface uPA Generation; also: nearly all actives have a fitted effect of over 55% in size
Details: cell surface uPA generation assay; series mostly up to 38.3 µM; activity change, negative = inhibition: at the top concentration
Outline: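 Validation set in qHTS format. RAW 264.7 cells were pre-plated overnight and then exposed to compounds (up to 38.3 uM final) for 24 h at 37 C in 5% CO2, followed by a luminescent ATP-Lite measurement.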
% is scaled to controls: 0 for no effect and ±100 for the full control effect; potency is read from the fitted curve at half-maximal effect.

| Structure (SMILES) | activity change, negative = inhibition | Potency |
| --- | --- | --- |
| Cc1nnc(N(Cc2ccco2)C(=O)c2cccc(C#N)c2)s1 | inactive: -1.47% |  |
| CCCC1CC(C)(c2csc(Nc3ccc(OCC)cc3)n2)OC1=O (stereo unspecified) |  | inconclusive: 14.1 µM [inhibitor, single point] |
| O=C(Nc1ccc(F)cc1)c1ccc2[nH]c(=O)c(=O)[nH]c2c1 |  | inconclusive: 11.2 µM [inhibitor, partial curve, poor fit] |
| CN1CCN(C(c2cccc(C(F)(F)F)c2)c2nnnn2Cc2ccccc2)CC1 (stereo unspecified) | inactive: -3.42% |  |
| COc1ccc(-c2cc3cccc(OC)c3oc2=O)cc1 |  | inconclusive: 2 µM [inhibitor, full curve, poor fit] |
| COc1ccc(N2CCN(CCC(=O)c3ccc4ccccc4c3)CC2)cc1 |  | inconclusive: 1.12 µM [inhibitor, single point] |
| O=C1CCCc2ccccc2N1Cc1ccccc1Cl | inactive: -0.0676% |  |
| COc1ccc(C(=S)N2CCN(c3ccccc3C)CC2)cc1OC | inactive: -3.58% |  |
| CCOc1ccc2nc(N3CCC(C(=O)N4CCN(C(=O)c5ccco5)CC4)CC3)sc2c1 |  | inconclusive: 31.6 µM [inhibitor, single point] |
| CC(C)(C)c1ccc(Oc2ccc(NC(=O)c3ccco3)cn2)cc1 |  | active: 1.26 µM |
| CC1CC(C)(C)CC2(C1)NC(=O)N(CC(=O)N1CCN(Cc3ccc(C#N)cc3)CC1)C2=O (stereo unspecified) |  | inconclusive: 11.2 µM [inhibitor, single point] |
| Cc1cccc(C(=O)N[C@H](C(=O)Nc2nc3ccccc3[nH]2)C(C)C)c1 |  | active: 2.82 µM |
| COc1cc(OC)cc(C(=O)NCC(=O)NCCN2C(=O)S/C(=C\c3ccccc3Cl)C2=O)c1 |  | inconclusive: 14.1 µM [inhibitor, partial curve, poor fit] |
| O=C(NC1CC1)c1cccc2c1C(=O)c1ccc(N3CCC(Cc4ccccc4)CC3)cc1S2(=O)=O |  | inconclusive: 31.6 µM [inhibitor, single point] |
| COc1ccc(-c2c([C@H]3[C@@H]4C=CCC[C@@]4(C)C(=O)N3Cc3ccccc3)ccc3ccccc23)cc1OC |  | inconclusive: 20 µM [inhibitor, single point] |
| CN1CCCC(n2nc(Cc3ccc(Cl)cc3)c3ccccc3c2=O)CC1 (stereo unspecified) |  | inconclusive: 11.2 µM [inhibitor, partial curve, poor fit] |
| COc1cc(C(=O)COC(=O)c2c(C)noc2C)cc(OC)c1OC |  | inconclusive: 11.2 µM [inhibitor, single point] |
| COc1ccccc1C(=O)Nc1nnc(SCC(=O)NCc2ccco2)s1 |  | inconclusive: 8.91 µM [inhibitor, partial curve] |

Two of the compounds above, as labelled records.
COc1cc(OC)cc(C(=O)NCC(=O)NCCN2C(=O)S/C(=C\c3ccccc3Cl)C2=O)c1
  Potency: inconclusive: 14.1 µM [inhibitor, partial curve, poor fit]
O=C(NC1CC1)c1cccc2c1C(=O)c1ccc(N3CCC(Cc4ccccc4)CC3)cc1S2(=O)=O
  Potency: inconclusive: 31.6 µM [inhibitor, single point]

The list continues:

| Structure (SMILES) | activity change, negative = inhibition | Potency |
| --- | --- | --- |
| S=c1[nH]cnc2scc(-c3ccccc3)c12 | inactive: -1.61% |  |
| CC(=O)NNC(=O)c1csc(Cc2c(Cl)sc3ccc(Cl)cc23)n1 |  | inconclusive: 28.2 µM [inhibitor, single point] |
| COc1cc(C(c2c(C(=O)O)[nH]c3ccccc23)c2c(C(=O)O)[nH]c3ccccc23)ccc1OCc1ccccc1 | inactive: 2.49% |  |
| COCc1ccc(CN2CCCCC2C(=O)Nc2ccc(Oc3ccccc3)nc2)o1 (stereo unspecified) |  | inconclusive: 31.6 µM [inhibitor, single point] |
| CCOc1ccc(NC(=O)CN(C)C(=O)CCNC(=O)c2ccco2)cc1OCC |  | inconclusive: 12.6 µM [inhibitor, single point] |
| O=C(CCN1CCOCC1)NNC(=S)NC(=O)c1ccccc1 | inactive: -2.67% |  |
| O=C(Nc1ncccn1)c1ccc([N+](=O)[O-])cc1 | inactive: 10.2% |  |
| Nc1n[nH]c(N)c1N=Nc1ccc(Cl)cc1Cl |  | inconclusive: 11.2 µM [inhibitor, single point] |
| Fc1ccc(Nc2ncnc3sc4c(c23)CCC4)cc1F | inactive: 0.469% |  |
| COC(=O)Cc1c[nH]c2cccc(OCC(O)CN(Cc3ccccc3)C(C)C)c12 (stereo unspecified) | inactive: 7% |  |
| COc1cccc(NC(=O)CN(C)C(=O)CCNS(=O)(=O)c2ccc(C)cc2)c1 |  | inconclusive: 1 µM [inhibitor, partial curve, poor fit] |
| Cc1ccc(/C=N/Nc2ncnc3nc[nH]c23)cc1 |  | inconclusive: 10 µM [inhibitor, partial curve] |
| CN(Cc1ccccc1)c1ccc(C(CC(N)=O)NC(=O)c2ccc(Br)cc2)cc1[N+](=O)[O-] (stereo unspecified) |  | inconclusive: 12.6 µM [inhibitor, single point] |
| Cn1c(=O)[nH]c(=O)c2c1nc(Br)n2CC(O)COc1ccc(Cl)cc1 (stereo unspecified) |  | inconclusive: 20 µM [inhibitor, single point] |
| COc1ccc(NS(=O)(=O)c2cn(C)cn2)c(OC)c1 | inactive: -2.54% |  |
| Cc1ccc(-c2csc(N=C(N)N)n2)cc1 | inactive: -0.581% |  |
| CCCCCC(=O)NNC(=S)NC(=O)c1cccc([N+](=O)[O-])c1 | inactive: 2.1% |  |
| CCCC(=O)Nc1ncnc2c1ncn2[C@@H]1O[C@@H]2COP(=O)(O)O[C@H]2[C@H]1OC(=O)CCC |  | inconclusive: 10 µM [inhibitor, partial curve, poor fit] |
